The list shows a part of the results. Single values are uncertain here, since repeats match poorly.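 Free-swimming zebrafish larvae were assessed for O-bend response probability to dark flashes (naive: first five; training: remaining flashes across four 60-flash blocks; test: later 60-flash block) and for OMR turning toward alternating leftward/rightward LED motion. Six treated larvae were compared against sixty 0.1% DMSO controls; hits required |SSMD|≥2.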
Tested on: Danio rerio larvae (5 dpf, TLF)
Assay: Prob-Train (SSMD vs DMSO vehicle); higher = higher than vehicle (e.g. higher dark-flash O-bend response probability, or better optomotor performance)
Settings: 10 µM; pre-incubation: 30-90 min

For `Oc1ccc(OCc2ccccc2)cc1` [Monobenzone], which Prob-Train is on record?
Its Prob-Train is -0.774.

`CCCCNc1ccc(C(=O)OCCN(C)C)cc1.Cl` [Tetracaine HCl] was tested. Which Prob-Train did it give?
Its Prob-Train is 0.0485.

`CC(C)NCC(O)COc1ccc(CCOCC2CC2)cc1` (stereo not drawn) [Betaxolol] was tested. Which Prob-Train did it give?
Its Prob-Train is -0.113.

`COc1cc2ncnc(Nc3ccc(O)c(Br)c3)c2cc1OC` was tested. Which Prob-Train did it give?
Its Prob-Train is -0.372.

`CO/N=C(/C(=O)N[C@H]1C(=O)N2C(C(=O)O)=C(Cn3ccc(=N)n3CCO)CS[C@H]12)c1csc(N)n1.O=S(=O)(O)O` [Cefoselis Sulfate] was tested. Which Prob-Train did it give?
Its Prob-Train is 0.214.

With `Nc1ncnc2c1ncn2[C@H]1O[C@H](CO)[C@@H](O)[C@H]1O` [Adenosine] as the compound, how does the Prob-Train read?
The Prob-Train was 0.0525.

Which Prob-Train does the source give for `O=C(O)c1ccc(Nc2ncc3c(n2)-c2ccc(Cl)cc2C(c2c(F)cccc2F)=NC3)cc1` here?
Its Prob-Train is -2.97.

With `CNC(=O)c1ccc(C)c(-n2c(C)cc(OCc3ccc(F)cc3F)c(Br)c2=O)c1` as the compound, how does the Prob-Train read?
The Prob-Train was -0.227.

With `CCOc1cc(N)c(Cl)cc1C(=O)NCC1CN(Cc2ccc(F)cc2)CCO1.O=C(O)CC(O)(CC(=O)O)C(=O)O` (stereo not drawn) [Mosapride Citrate] as the compound, how does the Prob-Train read?
Its Prob-Train is -0.929.

For `CC(C)(C)c1ccc(-c2nc3ccccc3[nH]2)cc1`, which Prob-Train is on record?
The Prob-Train was 1.06.

For `COc1ccc(C(C)=O)c(O)c1` [Paeonol], which Prob-Train is on record?
Its Prob-Train is -0.115.

With `O=C1c2ccccc2C(=O)C1c1ccccc1` [Phenindione] as the compound, how does the Prob-Train read?
The Prob-Train was -0.702.

Which Prob-Train does the source give for `OC[C@H](O)CN1CCN(c2ccccc2)CC1` [Levodropropizine] here?
Its Prob-Train is -0.209.

From the supplement of paper PMC10727501
